Measurements from the supplement of paper PMC10849652.
Some of the results follow.

Chains of the proteins cited; added tags and fusions are not shown. Lines headed by an entry give the natural chain unless they say otherwise; changes in a name come on top.
UniProt Q9Y2W6: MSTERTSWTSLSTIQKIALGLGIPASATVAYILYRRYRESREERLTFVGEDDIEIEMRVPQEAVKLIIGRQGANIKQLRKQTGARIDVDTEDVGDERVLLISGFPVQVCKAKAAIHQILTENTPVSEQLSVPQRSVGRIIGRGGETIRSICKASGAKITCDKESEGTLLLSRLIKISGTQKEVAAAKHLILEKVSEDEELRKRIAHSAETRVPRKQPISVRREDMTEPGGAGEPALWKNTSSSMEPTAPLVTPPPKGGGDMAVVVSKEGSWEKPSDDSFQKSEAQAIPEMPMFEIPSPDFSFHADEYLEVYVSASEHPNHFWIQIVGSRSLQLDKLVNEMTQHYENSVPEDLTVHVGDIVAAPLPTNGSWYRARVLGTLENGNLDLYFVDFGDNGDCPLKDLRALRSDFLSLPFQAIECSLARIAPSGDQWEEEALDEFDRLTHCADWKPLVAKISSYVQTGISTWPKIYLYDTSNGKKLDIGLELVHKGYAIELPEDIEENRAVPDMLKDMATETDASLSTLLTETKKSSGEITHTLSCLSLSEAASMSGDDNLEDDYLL
UniProt Q03167: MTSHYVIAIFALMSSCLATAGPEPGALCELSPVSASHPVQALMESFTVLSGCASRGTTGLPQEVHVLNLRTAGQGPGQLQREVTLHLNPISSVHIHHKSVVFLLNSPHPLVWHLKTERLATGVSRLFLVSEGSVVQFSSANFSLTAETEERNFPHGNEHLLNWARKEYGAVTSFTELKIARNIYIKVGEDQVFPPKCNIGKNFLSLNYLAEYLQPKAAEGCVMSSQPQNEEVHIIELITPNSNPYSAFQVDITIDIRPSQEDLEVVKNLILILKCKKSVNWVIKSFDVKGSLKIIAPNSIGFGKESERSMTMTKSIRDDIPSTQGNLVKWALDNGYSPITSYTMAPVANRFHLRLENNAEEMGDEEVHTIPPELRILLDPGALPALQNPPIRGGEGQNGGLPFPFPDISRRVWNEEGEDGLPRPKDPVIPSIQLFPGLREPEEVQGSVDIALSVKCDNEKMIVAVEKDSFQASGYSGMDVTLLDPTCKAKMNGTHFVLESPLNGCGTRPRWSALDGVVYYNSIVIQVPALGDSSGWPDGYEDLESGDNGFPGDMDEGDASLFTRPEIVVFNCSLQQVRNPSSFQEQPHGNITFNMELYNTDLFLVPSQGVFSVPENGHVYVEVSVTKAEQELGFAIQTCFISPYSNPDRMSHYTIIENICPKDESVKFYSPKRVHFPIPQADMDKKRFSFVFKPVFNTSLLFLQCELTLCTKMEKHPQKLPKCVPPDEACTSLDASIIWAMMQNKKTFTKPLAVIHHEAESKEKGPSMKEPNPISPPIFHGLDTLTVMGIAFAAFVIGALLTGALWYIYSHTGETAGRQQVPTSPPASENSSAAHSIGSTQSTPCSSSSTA
UniProt Q8NI27: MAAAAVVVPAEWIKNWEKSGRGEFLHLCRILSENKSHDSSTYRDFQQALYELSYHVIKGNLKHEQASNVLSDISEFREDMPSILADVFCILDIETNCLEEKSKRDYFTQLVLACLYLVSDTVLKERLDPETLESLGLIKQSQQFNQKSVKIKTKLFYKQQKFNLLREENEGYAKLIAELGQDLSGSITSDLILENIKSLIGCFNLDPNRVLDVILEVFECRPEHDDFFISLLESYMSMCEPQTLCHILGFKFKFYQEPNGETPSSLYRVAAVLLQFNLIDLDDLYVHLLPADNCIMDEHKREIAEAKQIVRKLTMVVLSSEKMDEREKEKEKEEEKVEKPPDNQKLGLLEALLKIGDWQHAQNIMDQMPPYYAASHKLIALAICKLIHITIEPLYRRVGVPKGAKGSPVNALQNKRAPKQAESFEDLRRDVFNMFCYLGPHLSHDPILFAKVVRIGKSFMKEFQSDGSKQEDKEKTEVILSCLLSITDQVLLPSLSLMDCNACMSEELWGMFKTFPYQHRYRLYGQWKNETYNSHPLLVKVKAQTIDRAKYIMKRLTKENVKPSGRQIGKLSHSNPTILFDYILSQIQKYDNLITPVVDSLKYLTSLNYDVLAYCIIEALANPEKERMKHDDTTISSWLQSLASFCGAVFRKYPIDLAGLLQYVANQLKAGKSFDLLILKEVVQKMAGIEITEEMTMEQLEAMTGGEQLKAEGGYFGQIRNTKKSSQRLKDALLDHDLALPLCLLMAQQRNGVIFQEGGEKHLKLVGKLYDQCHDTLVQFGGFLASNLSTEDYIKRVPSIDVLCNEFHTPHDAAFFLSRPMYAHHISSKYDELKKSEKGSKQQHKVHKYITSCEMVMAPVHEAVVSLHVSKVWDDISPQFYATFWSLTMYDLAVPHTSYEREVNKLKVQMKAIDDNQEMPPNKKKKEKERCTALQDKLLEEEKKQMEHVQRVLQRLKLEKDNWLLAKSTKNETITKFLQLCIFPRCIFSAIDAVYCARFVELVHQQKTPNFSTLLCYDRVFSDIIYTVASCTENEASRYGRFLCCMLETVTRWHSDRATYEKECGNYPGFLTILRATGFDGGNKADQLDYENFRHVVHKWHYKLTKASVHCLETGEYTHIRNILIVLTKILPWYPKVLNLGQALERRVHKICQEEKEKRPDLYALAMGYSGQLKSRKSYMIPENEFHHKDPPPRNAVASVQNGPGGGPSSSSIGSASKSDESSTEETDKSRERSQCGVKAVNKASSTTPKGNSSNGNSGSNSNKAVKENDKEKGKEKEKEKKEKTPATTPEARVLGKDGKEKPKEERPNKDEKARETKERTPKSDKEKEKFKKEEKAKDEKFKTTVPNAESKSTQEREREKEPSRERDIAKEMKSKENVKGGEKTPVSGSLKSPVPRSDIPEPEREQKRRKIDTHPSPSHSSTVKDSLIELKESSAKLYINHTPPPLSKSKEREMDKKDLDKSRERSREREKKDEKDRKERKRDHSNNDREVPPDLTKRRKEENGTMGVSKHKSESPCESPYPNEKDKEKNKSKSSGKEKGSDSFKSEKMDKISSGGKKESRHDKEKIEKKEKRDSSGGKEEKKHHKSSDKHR
UniProt P01033: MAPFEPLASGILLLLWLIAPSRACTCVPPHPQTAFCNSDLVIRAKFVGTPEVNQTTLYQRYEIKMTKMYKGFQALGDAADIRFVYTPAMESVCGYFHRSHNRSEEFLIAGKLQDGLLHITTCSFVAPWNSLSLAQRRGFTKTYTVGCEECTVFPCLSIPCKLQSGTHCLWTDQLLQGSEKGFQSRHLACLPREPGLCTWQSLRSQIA
UniProt Q8WVM0: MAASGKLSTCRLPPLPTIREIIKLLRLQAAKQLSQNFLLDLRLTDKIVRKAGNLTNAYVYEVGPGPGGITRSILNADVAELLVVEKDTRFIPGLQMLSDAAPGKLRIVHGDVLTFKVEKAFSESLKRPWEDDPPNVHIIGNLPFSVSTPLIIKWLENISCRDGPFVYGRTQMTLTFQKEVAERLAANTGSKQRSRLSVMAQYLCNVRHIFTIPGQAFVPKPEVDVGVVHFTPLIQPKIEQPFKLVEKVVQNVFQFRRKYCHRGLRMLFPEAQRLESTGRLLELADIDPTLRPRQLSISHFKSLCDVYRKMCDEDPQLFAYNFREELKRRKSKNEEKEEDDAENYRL
UniProt Q8WUA7: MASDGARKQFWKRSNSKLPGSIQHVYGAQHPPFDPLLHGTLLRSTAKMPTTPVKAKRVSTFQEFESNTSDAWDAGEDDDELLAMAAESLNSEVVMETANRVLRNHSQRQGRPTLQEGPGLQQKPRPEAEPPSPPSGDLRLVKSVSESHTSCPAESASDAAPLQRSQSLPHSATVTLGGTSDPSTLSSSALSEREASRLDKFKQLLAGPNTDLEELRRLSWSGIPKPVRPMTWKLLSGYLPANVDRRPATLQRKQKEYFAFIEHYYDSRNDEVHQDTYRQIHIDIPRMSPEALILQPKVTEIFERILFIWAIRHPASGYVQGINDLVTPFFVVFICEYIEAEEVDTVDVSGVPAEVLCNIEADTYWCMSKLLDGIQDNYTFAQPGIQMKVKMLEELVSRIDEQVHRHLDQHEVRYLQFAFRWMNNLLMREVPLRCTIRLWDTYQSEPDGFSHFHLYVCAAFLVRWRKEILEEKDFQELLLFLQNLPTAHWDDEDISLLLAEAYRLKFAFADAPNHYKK
UniProt Q92734, whole entry, looked up: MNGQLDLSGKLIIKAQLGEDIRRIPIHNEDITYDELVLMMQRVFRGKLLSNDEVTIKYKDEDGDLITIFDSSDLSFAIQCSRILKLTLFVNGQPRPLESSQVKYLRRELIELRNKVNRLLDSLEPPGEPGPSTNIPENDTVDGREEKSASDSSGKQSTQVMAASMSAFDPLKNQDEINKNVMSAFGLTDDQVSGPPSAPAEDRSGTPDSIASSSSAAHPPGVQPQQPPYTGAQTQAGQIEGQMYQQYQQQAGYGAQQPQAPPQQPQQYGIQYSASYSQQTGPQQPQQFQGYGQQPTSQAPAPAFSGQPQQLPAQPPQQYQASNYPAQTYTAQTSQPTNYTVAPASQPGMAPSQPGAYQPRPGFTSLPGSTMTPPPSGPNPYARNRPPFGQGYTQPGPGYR
UniProt Q969Z0: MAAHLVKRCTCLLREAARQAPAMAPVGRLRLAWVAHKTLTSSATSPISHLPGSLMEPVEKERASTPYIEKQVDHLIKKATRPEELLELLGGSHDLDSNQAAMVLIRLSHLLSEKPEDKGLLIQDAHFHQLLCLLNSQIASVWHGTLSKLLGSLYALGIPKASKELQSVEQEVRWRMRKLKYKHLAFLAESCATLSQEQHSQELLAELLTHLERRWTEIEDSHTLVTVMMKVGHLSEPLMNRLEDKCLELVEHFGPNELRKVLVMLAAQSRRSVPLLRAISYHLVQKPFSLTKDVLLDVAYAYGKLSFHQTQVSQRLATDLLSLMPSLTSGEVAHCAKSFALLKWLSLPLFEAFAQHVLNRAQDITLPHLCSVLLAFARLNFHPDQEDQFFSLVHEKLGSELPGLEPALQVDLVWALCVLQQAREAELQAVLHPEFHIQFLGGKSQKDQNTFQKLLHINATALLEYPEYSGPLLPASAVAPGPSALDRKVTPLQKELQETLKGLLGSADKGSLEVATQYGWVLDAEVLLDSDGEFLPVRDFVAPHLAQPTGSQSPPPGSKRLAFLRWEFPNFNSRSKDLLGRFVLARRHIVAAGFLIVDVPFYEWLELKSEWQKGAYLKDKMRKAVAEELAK
UniProt Q9NZ01: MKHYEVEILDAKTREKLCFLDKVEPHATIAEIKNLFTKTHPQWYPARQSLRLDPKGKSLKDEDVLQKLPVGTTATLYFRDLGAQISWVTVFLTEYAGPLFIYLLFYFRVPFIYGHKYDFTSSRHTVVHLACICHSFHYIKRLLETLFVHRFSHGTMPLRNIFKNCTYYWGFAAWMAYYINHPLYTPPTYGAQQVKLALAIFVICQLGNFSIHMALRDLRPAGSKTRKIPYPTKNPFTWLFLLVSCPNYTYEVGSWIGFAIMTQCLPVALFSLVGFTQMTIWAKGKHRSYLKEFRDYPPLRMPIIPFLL
UniProt Q99426: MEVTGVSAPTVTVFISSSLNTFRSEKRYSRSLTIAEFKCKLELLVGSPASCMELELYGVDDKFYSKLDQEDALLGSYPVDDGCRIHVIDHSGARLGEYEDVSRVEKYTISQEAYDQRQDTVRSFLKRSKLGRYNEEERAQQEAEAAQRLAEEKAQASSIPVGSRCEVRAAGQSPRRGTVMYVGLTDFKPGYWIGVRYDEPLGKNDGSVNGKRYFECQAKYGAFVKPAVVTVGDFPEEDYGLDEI
UniProt Q8TC07: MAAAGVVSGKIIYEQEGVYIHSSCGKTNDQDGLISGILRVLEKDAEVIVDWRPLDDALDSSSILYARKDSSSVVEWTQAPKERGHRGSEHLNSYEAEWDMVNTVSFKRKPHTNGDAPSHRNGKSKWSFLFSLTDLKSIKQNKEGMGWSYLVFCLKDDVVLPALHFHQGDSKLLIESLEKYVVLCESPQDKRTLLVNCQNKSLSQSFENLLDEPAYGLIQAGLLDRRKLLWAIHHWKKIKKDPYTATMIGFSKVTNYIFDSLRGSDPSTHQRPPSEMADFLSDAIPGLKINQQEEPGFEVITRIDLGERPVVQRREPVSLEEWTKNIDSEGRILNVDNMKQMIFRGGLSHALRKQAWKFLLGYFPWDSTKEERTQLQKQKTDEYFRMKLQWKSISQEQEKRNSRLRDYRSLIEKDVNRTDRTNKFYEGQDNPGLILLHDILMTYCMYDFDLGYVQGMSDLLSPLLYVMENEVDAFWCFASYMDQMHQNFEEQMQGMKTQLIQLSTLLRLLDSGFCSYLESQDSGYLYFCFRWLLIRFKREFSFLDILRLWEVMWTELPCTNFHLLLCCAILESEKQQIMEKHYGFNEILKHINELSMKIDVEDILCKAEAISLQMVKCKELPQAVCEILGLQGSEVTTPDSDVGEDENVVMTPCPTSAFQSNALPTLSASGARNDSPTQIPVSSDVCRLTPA
UniProt O75347: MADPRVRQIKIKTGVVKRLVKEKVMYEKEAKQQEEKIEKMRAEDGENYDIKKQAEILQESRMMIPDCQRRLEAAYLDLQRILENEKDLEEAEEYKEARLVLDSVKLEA

Experiments:
Assay in all cases: log2 fold change, soluble protein after heating vs DMSO (PISA); higher = thermal stabilisation; K562 cells, 10 uM, 30 min; active = over 0.2 and 3.5 SD of the protein, either way, in both replicates (recomputed)
[1] = compound: COC1=CC=C(C=C1)CN2C=CC3=C2C=C(C=C3)C(=O)NO
Summary of the method: (§1)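 Soluble protein was quantified by TMTpro 16plex LC-MS/MS after channel sums were equalised. It was obtained as the supernatant after 21,000xg for 90 min from pooled aliquots of K562 cells (2×10^6 cells/mL, 10 μM compound, 30 min) heated for 3 min across 48°C-58°C and extracted in PBS with 0.5% NP-40 at 4°C. Thermal stability values are relative to control samples and come from duplicates. They are given as log2 fold changes.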

filanesib = compound: CON(C)C(=O)N1N=C(c2cc(F)ccc2F)S[C@@]1(CCCN)c1ccccc1 [filanesib]
Summary of the method: as §1

zotarolimus = compound: CO[C@H]1C[C@@H]2CC[C@@H](C)[C@@](O)(O2)C(=O)C(=O)N2CCCC[C@H]2C(=O)O[C@H]([C@H](C)C[C@@H]2CC[C@H](n3cnnn3)[C@H](OC)C2)CC(=O)[C@H](C)/C=C(\C)[C@@H](O)[C@@H](OC)C(=O)[C@H](C)C[C@H](C)/C=C/C=C/C=C/1C [zotarolimus]
Summary of the method: as §1

idasanutlin = compound: COc1cc(C(=O)O)ccc1NC(=O)[C@@H]1N[C@@H](CC(C)(C)C)[C@](C#N)(c2ccc(Cl)cc2F)[C@H]1c1cccc(Cl)c1F [idasanutlin]
Summary of the method: as §1

alisertib = compound: COc1cc(Nc2ncc3c(n2)-c2ccc(Cl)cc2C(c2c(F)cccc2OC)=NC3)ccc1C(=O)O [alisertib]
Summary of the method: as §1

[2] = compound: COc1cc2nc(-c3cc(F)ccc3O)nc(N[C@@H]3CNC[C@H]3C(C)(C)O)c2cc1OC
Summary of the method: as §1

gefitinib = compound: COc1cc2ncnc(Nc3ccc(F)c(Cl)c3)c2cc1OCCCN1CCOCC1 [gefitinib]
Summary of the method: as §1

[3] = compound: COc1cccc2cc(-c3nc([C@H]4CC[C@H](C(=O)O)CC4)n4ncnc(N)c34)[nH]c12
Summary of the method: as §1

lapatinib = compound: CS(=O)(=O)CCNCc1ccc(-c2ccc3ncnc(Nc4ccc(OCc5cccc(F)c5)c(Cl)c4)c3c2)o1 [lapatinib]
Summary of the method: as §1

pictilisib = compound: CS(=O)(=O)N1CCN(Cc2cc3nc(-c4cccc5[nH]ncc45)nc(N4CCOCC4)c3s2)CC1 [pictilisib]
Summary of the method: as §1

[4] = compound: CS(=O)(=O)c1ccc(-c2cnc(N)c(C(=O)Nc3ccccc3)n2)cc1
Summary of the method: as §1

crizotinib = compound: C[C@@H](Oc1cc(-c2cnn(C3CCNCC3)c2)cnc1N)c1c(Cl)ccc(F)c1Cl [crizotinib]
Summary of the method: as §1

[5] = compound: C[C@@H]1COCCN1C2=NC(=NC(=C2)C3(CC3)S(=O)(=O)C)C4=C5C=CNC5=CC=C4
Summary of the method: as §1

[6] = compound: C[C@H](C1=CC=C(C=C1)C(=O)NC2=C3C=CNC3=NC=C2)N
Summary of the method: as §1

duvelisib = compound: C[C@H](Nc1ncnc2nc[nH]c12)c1cc2cccc(Cl)c2c(=O)n1-c1ccccc1 [duvelisib]
Summary of the method: as §1

gandotinib = compound: Cc1cc(Nc2cc(CN3CCOCC3)c3nc(C)c(Cc4ccc(Cl)cc4F)n3n2)n[nH]1 [gandotinib]
Summary of the method: as §1

tozasertib = compound: Cc1cc(Nc2cc(N3CCN(C)CC3)nc(Sc3ccc(NC(=O)C4CC4)cc3)n2)n[nH]1 [tozasertib]
Summary of the method: as §1

[7] = compound: Cc1cc(SCc2sc(-c3ccc(C(F)(F)F)cc3)nc2C)ccc1OCC(=O)O
Summary of the method: as §1

doramapimod = compound: Cc1ccc(-n2nc(C(C)(C)C)cc2NC(=O)Nc2ccc(OCCN3CCOCC3)c3ccccc23)cc1 [doramapimod]
Summary of the method: as §1

ispinesib = compound: Cc1ccc(C(=O)N(CCCN)[C@@H](c2nc3cc(Cl)ccc3c(=O)n2Cc2ccccc2)C(C)C)cc1 [ispinesib]
Summary of the method: as §1

Target	log2 fold change [1]	log2 fold change (filanesib)	log2 fold change (zotarolimus)	log2 fold change (idasanutlin)	log2 fold change (alisertib)	log2 fold change [2]	log2 fold change (gefitinib)	log2 fold change [3]	log2 fold change (lapatinib)	log2 fold change (pictilisib)	log2 fold change [4]	log2 fold change (crizotinib)	log2 fold change [5]	log2 fold change [6]	log2 fold change (duvelisib)	log2 fold change (gandotinib)	log2 fold change (tozasertib)	log2 fold change [7]	log2 fold change (doramapimod)	log2 fold change (ispinesib)
TDRKH (UniProt Q9Y2W6)	inactive: 0.021	inactive: 0.101	inactive: 0.099	inactive: -0.125	inactive: -0.119	inactive: 0.005	inactive: 0.003	inactive: -0.055	inactive: 0.008	inactive: -0.011	inactive: 0.029	inactive: -0.02	inactive: 0.018	inactive: 0.165	inactive: 0.103	inactive: 0.033	inactive: -0.057	inactive: 0.002	inactive: 0.002	inactive: 0.004
TCAF1 (UniProt Q9Y4C2)	inactive: -0.016	inactive: 0.024	inactive: 0.099	inactive: -0.036	inactive: 0.005	inactive: 0.021	inactive: 0.003	inactive: -0.031	inactive: 0.016	inactive: 0.031	inactive: 0.079	inactive: -0.109	inactive: 0.001	inactive: 0.141	inactive: -0.045	inactive: -0.015	inactive: -0.036	inactive: 0.039	inactive: 0.055	inactive: -0.073
TBL1XR1 (UniProt Q9BZK7)	inactive: -0.018	inactive: -0.022	inactive: 0.005	inactive: -0.011	inactive: 0.012	inactive: -0.018	inactive: -0.004	inactive: 0.043	inactive: 0.025	inactive: 0.141	inactive: -0.001	inactive: 0.038	inactive: 0.068	inactive: -0.019	inactive: -0.011	inactive: -0.018	inactive: 0.011	inactive: 0.002	inactive: 0.015	inactive: 0.07
TGFBR3 (UniProt Q03167)	inactive: -0.093	inactive: 0.14	inactive: -0.04	inactive: 0.057	inactive: -0.133	inactive: -0.017	inactive: 0.072	inactive: 0.066	inactive: 0.029	inactive: -0.011	inactive: 0.049	inactive: -0.022	inactive: -0.039	inactive: -0.057	inactive: 0.081	inactive: -0.063	inactive: 0.056	inactive: -0.02	inactive: 0.048	inactive: 0.094
THOC2 (UniProt Q8NI27)	inactive: -0.002	inactive: 0.148	inactive: -0.088	inactive: 0.157	inactive: -0.071	inactive: -0.005	inactive: 0.015	inactive: -0.027	inactive: 0.074	inactive: -0.001	inactive: -0.033	inactive: -0.044	inactive: -0.014	inactive: 0.156	inactive: -0.023	inactive: -0.042	inactive: -0.041	inactive: -0.001	inactive: 0.104	inactive: -0.157
TIMP1 (UniProt P01033)	inactive: -0.062	inactive: 0.121	inactive: -0.041	inactive: -0.032	inactive: -0.071	inactive: -0.044	inactive: 0.084	inactive: 0.004	inactive: 0.053	inactive: 0.087	inactive: -0.104	inactive: -0.069	inactive: -0.003	inactive: -0.068	inactive: 0.048	inactive: 0.144	inactive: 0.06	inactive: -0.02	inactive: 0.024	inactive: 0.148
TFB1M (UniProt Q8WVM0)	inactive: -0.087	inactive: 0.198	inactive: 0.053	inactive: 0.138	inactive: -0.116	inactive: 0.107	inactive: -0.011	inactive: -0.112	inactive: 0.184	inactive: -0.015	inactive: -0.07	inactive: 0.095	inactive: -0.216	inactive: 0.207	inactive: 0.004	inactive: 0.105	inactive: -0.073	inactive: 0.048	inactive: 0.11	inactive: -0.069
TBC1D22A (UniProt Q8WUA7)	inactive: -0.13	inactive: 0	inactive: 0.008	inactive: -0.028	inactive: -0.017	inactive: 0.015	inactive: -0.013	inactive: 0.095	inactive: 0.031	inactive: -0.029	inactive: -0.014	inactive: 0.057	inactive: -0.017	inactive: -0.084	inactive: 0.023	inactive: -0.022	inactive: -0.021	inactive: 0.013	inactive: 0.029	inactive: -0.004
TFG (UniProt Q92734)	inactive: -0.044	inactive: 0.001	inactive: -0.032	inactive: -0.013	inactive: -0.029	inactive: -0.034	inactive: -0.012	inactive: 0.067	inactive: -0.006	inactive: -0.062	inactive: -0.012	inactive: 0.049	inactive: -0.023	inactive: -0.094	inactive: -0.005	inactive: 0.051	inactive: -0.005	inactive: -0.02	inactive: -0.035	inactive: -0.007
TBRG4 (UniProt Q969Z0)	inactive: 0.062	inactive: -0.551	inactive: -0.007	inactive: -0.021	inactive: 0.032	inactive: -0.274	inactive: -0.121	inactive: 0.073	inactive: -0.051	inactive: -0.036	inactive: -0.041	active: -0.676	inactive: 0.137	inactive: -0.005	–	inactive: -0.364	–	inactive: 0.174	inactive: -0.081	inactive: -0.254
TECR (UniProt Q9NZ01)	inactive: -0.031	inactive: -0.169	inactive: -0.041	inactive: -0.111	inactive: -0.028	inactive: -0.102	inactive: -0.027	inactive: 0.034	inactive: -0.012	inactive: -0.102	inactive: -0.002	inactive: -0.247	inactive: 0.054	inactive: 0.045	–	active: -0.344	–	inactive: 0.044	inactive: -0.095	active: -0.501
TBCB (UniProt Q99426)	inactive: 0.011	inactive: -0.019	inactive: 0.013	inactive: 0.019	inactive: -0.011	inactive: -0.006	inactive: 0.037	inactive: -0.029	inactive: 0.016	inactive: -0.005	inactive: 0.02	inactive: 0.044	inactive: 0.05	inactive: -0.048	inactive: 0.013	inactive: -0.039	inactive: 0.043	inactive: 0.04	inactive: -0.033	inactive: -0.014
TES (UniProt Q9UGI8)	inactive: 0.019	inactive: -0.033	inactive: 0.006	inactive: -0.038	inactive: -0.039	inactive: -0.01	inactive: -0.017	inactive: -0.013	inactive: 0.012	inactive: 0.022	inactive: 0.033	inactive: -0.013	inactive: 0.05	inactive: -0.074	inactive: 0.013	inactive: 0.03	inactive: 0.015	inactive: -0.018	inactive: 0	inactive: 0.043
TBCD (UniProt Q9BTW9)	inactive: -0.017	inactive: -0.063	inactive: 0.049	inactive: -0.091	inactive: -0.078	inactive: -0.006	inactive: 0.022	inactive: 0.023	inactive: -0.024	inactive: 0.04	inactive: -0.069	inactive: 0.001	inactive: 0.061	inactive: -0.034	–	inactive: -0.104	–	inactive: 0.009	inactive: 0.004	inactive: -0.032
TBC1D15 isoform 3 (UniProt Q8TC07)	inactive: -0.063	inactive: 0	inactive: 0.039	inactive: -0.058	inactive: -0.052	inactive: -0.065	inactive: 0.015	inactive: -0.06	inactive: 0.032	inactive: -0.009	inactive: -0.012	inactive: -0.275	inactive: -0.032	inactive: 0.036	–	inactive: -0.191	–	inactive: 0.064	inactive: 0.017	inactive: -0.154
TBCA (UniProt O75347)	inactive: -0.116	inactive: -0.039	inactive: -0.026	inactive: 0.045	inactive: -0.045	inactive: 0.013	inactive: 0.016	inactive: 0.055	inactive: -0.035	inactive: 0	inactive: -0.002	inactive: 0.007	inactive: 0.018	inactive: -0.064	inactive: 0.003	inactive: 0.013	inactive: -0.047	inactive: -0.041	inactive: -0.035	inactive: -0.023

Full records from above. Order of values: log2 fold change [1]	log2 fold change (filanesib)	log2 fold change (zotarolimus)	log2 fold change (idasanutlin)	log2 fold change (alisertib)	log2 fold change [2]	log2 fold change (gefitinib)	log2 fold change [3]	log2 fold change (lapatinib)	log2 fold change (pictilisib)	log2 fold change [4]	log2 fold change (crizotinib)	log2 fold change [5]	log2 fold change [6]	log2 fold change (duvelisib)	log2 fold change (gandotinib)	log2 fold change (tozasertib)	log2 fold change [7]	log2 fold change (doramapimod)	log2 fold change (ispinesib)
TECR (UniProt Q9NZ01) is entered as inactive: -0.031	inactive: -0.169	inactive: -0.041	inactive: -0.111	inactive: -0.028	inactive: -0.102	inactive: -0.027	inactive: 0.034	inactive: -0.012	inactive: -0.102	inactive: -0.002	inactive: -0.247	inactive: 0.054	inactive: 0.045	–	active: -0.344	–	inactive: 0.044	inactive: -0.095	active: -0.501
TBC1D15 isoform 3 (UniProt Q8TC07) is entered as inactive: -0.063	inactive: 0	inactive: 0.039	inactive: -0.058	inactive: -0.052	inactive: -0.065	inactive: 0.015	inactive: -0.06	inactive: 0.032	inactive: -0.009	inactive: -0.012	inactive: -0.275	inactive: -0.032	inactive: 0.036	–	inactive: -0.191	–	inactive: 0.064	inactive: 0.017	inactive: -0.154
